From the supplement of paper PMC10849652
Some of the results follow.

Protein sequences, listed by entry. Tags and fused reporters are not part of them. Lines headed by an entry give the natural chain unless they say otherwise; changes in a name come on top.
UniProt Q9NQT5, whole entry, looked up: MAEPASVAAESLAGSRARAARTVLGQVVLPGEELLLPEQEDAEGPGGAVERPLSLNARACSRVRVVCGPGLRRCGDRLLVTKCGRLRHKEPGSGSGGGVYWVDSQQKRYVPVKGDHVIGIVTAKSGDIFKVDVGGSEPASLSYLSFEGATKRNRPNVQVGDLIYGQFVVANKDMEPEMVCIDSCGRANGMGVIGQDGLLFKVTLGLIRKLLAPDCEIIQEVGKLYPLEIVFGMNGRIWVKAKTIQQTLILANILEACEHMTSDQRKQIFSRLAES
UniProt Q96A65: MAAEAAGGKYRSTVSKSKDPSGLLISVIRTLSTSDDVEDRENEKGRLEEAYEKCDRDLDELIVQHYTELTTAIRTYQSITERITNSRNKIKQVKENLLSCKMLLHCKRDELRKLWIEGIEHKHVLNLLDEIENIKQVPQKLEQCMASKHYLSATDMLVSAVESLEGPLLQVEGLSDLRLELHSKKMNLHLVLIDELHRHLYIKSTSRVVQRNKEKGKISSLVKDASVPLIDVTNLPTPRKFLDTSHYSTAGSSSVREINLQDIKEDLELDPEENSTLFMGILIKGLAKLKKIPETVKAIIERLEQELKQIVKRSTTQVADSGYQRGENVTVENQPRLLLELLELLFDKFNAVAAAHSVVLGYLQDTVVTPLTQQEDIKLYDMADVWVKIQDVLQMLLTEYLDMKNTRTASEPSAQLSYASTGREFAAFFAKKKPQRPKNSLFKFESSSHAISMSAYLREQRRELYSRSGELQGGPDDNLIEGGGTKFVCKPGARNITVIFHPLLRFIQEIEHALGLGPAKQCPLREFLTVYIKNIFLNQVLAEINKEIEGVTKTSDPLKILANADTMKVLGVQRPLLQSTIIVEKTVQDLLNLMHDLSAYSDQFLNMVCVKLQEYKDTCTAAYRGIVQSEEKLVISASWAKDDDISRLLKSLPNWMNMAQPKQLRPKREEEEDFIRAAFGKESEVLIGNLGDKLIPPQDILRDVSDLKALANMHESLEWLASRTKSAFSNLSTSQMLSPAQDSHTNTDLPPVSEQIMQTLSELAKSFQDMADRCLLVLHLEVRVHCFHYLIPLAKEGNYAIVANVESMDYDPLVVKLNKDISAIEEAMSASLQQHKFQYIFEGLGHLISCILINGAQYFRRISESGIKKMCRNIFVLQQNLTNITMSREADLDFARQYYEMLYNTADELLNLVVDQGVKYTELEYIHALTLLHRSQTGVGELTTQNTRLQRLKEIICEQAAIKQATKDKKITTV
UniProt Q8IWE2: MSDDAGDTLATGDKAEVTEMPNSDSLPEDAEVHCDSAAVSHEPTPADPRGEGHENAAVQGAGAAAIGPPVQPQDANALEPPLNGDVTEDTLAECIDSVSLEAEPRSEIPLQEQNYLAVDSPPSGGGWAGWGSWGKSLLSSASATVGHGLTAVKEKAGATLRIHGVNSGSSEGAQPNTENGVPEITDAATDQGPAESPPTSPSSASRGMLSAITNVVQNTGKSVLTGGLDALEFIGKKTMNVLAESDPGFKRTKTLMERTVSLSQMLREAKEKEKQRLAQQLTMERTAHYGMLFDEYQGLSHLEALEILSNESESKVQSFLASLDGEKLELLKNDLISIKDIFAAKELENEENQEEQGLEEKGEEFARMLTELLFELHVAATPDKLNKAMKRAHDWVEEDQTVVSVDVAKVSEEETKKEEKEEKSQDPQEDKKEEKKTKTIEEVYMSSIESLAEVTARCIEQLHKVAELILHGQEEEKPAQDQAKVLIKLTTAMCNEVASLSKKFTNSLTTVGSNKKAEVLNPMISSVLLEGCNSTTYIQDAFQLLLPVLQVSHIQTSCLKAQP
UniProt Q96DZ1: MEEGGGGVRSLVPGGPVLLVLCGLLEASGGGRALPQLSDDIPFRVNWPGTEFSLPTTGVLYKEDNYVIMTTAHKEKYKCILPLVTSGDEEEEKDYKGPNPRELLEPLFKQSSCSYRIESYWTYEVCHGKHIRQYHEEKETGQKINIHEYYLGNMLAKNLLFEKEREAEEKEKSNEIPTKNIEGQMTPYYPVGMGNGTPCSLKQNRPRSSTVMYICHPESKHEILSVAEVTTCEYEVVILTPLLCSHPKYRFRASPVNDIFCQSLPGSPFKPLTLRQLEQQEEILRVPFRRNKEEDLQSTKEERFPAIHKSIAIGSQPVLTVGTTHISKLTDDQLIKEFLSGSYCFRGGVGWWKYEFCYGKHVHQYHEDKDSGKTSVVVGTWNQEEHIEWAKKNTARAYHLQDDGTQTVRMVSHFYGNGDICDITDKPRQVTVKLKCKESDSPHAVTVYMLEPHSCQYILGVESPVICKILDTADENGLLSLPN
UniProt O60447: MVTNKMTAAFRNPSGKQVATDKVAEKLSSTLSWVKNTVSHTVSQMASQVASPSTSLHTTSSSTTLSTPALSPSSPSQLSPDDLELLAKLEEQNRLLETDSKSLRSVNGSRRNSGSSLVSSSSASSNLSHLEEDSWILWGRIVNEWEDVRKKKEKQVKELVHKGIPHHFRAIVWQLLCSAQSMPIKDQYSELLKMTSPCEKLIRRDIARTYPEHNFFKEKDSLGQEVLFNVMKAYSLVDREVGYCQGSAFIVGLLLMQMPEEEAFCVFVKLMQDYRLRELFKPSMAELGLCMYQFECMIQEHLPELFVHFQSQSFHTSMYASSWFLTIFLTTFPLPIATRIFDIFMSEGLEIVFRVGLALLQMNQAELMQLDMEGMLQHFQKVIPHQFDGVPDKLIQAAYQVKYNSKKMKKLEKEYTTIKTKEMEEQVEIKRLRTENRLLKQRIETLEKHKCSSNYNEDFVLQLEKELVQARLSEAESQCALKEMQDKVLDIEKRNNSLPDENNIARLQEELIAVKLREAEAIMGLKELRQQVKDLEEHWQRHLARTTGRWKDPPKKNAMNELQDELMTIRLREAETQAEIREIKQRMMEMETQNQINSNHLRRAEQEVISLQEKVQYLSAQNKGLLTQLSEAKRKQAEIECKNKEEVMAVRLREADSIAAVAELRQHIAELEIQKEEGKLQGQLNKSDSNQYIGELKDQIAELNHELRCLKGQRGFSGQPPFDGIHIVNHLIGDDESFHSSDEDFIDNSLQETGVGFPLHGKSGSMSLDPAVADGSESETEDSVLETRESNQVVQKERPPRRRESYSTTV
UniProt Q01469, whole entry, looked up: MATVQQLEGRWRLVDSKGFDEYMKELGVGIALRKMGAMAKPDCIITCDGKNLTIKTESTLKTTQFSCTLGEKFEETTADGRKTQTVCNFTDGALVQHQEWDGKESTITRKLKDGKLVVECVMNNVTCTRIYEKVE
UniProt Q96PL5: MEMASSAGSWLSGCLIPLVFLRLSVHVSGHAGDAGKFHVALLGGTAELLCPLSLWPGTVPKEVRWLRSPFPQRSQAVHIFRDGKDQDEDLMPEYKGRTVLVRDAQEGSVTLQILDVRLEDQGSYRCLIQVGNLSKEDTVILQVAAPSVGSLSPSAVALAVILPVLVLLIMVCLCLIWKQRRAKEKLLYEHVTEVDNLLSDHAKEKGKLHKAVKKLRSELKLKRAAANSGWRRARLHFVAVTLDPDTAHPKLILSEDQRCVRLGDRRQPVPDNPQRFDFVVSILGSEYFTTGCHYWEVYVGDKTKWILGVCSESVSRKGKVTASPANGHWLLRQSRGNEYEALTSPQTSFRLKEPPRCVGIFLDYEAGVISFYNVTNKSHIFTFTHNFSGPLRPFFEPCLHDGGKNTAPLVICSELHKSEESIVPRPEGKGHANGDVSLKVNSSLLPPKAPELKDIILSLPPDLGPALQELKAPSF
UniProt Q9Y421: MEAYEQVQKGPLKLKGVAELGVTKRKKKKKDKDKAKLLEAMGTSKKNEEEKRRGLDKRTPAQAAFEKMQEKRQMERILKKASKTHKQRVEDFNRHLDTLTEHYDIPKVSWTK
UniProt Q86YB8: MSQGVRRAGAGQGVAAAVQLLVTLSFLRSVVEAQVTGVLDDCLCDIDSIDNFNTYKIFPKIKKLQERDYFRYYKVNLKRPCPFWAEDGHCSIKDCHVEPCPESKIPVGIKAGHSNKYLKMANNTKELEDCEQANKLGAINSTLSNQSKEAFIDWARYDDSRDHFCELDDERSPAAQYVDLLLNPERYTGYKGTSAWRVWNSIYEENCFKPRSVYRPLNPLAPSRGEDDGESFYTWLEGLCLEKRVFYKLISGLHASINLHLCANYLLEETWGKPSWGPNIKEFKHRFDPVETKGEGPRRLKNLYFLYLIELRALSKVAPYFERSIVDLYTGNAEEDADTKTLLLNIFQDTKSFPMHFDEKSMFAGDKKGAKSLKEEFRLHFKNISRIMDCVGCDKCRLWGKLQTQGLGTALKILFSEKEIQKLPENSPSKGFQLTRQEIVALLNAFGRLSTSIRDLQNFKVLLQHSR
UniProt Q9NVQ4: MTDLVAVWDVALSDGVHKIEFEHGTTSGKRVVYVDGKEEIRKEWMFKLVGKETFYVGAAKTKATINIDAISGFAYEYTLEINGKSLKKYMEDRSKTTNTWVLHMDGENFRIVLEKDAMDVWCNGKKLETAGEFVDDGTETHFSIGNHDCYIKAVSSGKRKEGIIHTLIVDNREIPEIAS
UniProt Q5BKY9: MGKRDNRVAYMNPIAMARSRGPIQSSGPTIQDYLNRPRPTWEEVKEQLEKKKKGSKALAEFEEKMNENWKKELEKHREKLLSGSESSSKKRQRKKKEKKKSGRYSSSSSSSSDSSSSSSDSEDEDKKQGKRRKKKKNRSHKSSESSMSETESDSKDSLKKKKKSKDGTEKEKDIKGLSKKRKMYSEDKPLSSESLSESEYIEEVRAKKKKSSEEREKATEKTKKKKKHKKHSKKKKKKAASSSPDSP
UniProt Q86UY5: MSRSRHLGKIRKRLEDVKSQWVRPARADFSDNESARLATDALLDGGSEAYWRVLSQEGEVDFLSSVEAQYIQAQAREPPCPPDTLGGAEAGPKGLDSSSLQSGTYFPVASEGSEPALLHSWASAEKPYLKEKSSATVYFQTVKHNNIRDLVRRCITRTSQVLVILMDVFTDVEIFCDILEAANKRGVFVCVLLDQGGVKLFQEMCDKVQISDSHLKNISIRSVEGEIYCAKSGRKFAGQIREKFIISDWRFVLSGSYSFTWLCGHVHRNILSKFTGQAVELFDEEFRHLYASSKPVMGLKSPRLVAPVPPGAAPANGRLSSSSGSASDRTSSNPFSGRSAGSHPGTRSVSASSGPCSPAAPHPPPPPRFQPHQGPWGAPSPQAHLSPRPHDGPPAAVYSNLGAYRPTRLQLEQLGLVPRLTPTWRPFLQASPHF
UniProt Q9C073: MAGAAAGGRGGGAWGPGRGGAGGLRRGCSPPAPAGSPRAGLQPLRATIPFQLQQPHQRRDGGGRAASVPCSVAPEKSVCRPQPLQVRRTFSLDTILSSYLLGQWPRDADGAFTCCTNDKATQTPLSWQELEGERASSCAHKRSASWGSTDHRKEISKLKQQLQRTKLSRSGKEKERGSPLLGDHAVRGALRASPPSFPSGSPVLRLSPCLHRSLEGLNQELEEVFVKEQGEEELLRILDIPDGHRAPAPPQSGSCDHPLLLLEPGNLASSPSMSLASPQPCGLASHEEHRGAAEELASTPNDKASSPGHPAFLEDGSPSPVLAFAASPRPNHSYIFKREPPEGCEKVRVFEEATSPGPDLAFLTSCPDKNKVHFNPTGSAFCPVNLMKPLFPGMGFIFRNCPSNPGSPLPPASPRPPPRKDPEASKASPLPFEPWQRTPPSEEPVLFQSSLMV
UniProt Q9NWS6: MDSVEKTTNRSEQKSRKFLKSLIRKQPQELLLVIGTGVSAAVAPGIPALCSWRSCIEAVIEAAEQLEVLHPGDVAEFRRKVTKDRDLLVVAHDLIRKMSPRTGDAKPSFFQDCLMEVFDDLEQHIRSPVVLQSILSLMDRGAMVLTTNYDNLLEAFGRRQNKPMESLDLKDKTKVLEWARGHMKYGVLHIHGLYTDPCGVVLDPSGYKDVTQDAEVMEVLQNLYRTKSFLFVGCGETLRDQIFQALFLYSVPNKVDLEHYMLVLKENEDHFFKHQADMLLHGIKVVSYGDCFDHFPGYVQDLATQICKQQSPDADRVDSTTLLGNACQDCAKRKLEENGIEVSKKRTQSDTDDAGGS
UniProt Q6P587: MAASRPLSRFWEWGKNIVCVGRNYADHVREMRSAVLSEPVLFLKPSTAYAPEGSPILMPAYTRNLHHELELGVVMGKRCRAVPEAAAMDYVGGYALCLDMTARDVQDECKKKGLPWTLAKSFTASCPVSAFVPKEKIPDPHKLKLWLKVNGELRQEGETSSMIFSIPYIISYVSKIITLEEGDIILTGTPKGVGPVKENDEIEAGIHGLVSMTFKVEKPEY
UniProt Q15024, whole entry, looked up: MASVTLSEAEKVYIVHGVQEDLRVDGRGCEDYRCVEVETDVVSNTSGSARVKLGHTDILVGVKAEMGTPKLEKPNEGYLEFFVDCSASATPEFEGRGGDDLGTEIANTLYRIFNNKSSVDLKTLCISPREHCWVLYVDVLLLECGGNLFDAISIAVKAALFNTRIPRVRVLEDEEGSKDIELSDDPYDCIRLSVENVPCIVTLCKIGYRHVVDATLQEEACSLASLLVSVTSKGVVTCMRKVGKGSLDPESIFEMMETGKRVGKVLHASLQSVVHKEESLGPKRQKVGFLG

What was measured:
Test in all cases: log2 fold change, soluble protein after heating vs DMSO (PISA); higher = thermal stabilisation; K562 lysate, 10 uM; active = over 0.2 and 3.5 SD of the protein, either way, in both replicates (recomputed)
erlotinib = compound: C#Cc1cccc(Nc2ncnc3cc(OCCOC)c(OCCOC)cc23)c1 [erlotinib]
In short: (§1)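 Quantification was by TMTpro 16plex LC-MS/MS with equalised channel sums, applied to the supernatant after 21,000xg for 90 min. Samples were crude K562 extract at 1 mg/mL protein in PBS pH 7.4 with 1 mM MgCl2, treated with 10 μM compound for 30 min, heated for 3 min across 48°C-58°C, pooled and brought to 0.5% NP-40 at 4°C. Values are log-two fold changes in thermal stability relative to solvent controls, from duplicates.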

[1] = compound: C/C(=N\NC(=O)C1=CC(=CC=C1)S(=O)(=O)N2CCOCC2)/C3=C(C=CC(=C3)Cl)O
In short: as §1

[2] = compound: C1=CC(=CC=C1C2=NC3=C(N2)C=C(C=C3)C(=O)N)OC4=CC=C(C=C4)Cl
In short: as §1

[3] = compound: C1=CC2=C(C=CC(=C2)/C=C\3/C(=O)NC(=NCC4=CC=CS4)S3)N=C1
In short: as §1

[4] = compound: C1=CC2=NC=CN=C2C=C1/C=C/3\C(=O)NC(=O)S3
In short: as §1

[5] = compound: C1=CC=C(C=C1)C2=NC(=C(N2)C3=CC=NC=C3)C4=CC(=C(C=C4)Cl)O
In short: as §1

[6] = compound: C1=CC=C2C(=C1)C3=NNC4=CC=CC(=C43)C2=O
In short: as §1

[7] = compound: C1CCN(C1)C(=O)NC2=CC=CC(=C2)NC3=NC=C(C(=N3)NCCC4=CN=CN4)Br
In short: as §1

[8] = compound: C1CN(CCC1(CC2=CC=C(C=C2)Cl)N)C3=NC=NC4=C3C=CN4
In short: as §1

IRAK-1-4 Inhibitor I = compound: C1COCCN1CCN2C3=CC=CC=C3N=C2NC(=O)C4=CC(=CC=C4)[N+](=O)[O-] [IRAK-1-4 Inhibitor I]
In short: as §1

Measured: log2 fold change

EXOSC3 (UniProt Q9NQT5)
inactive: erlotinib 0.023 | [1] -0.008 | [2] -0.003 | [3] 0.029 | [4] -0.002 | [5] 0.017 | [6] -0.016 | [7] -0.005 | [8] 0.005 | IRAK-1-4 Inhibitor I 0.032

EWSR1 isoform 5 (UniProt Q01844)
inactive: erlotinib -0.135 | [1] -0.037 | [2] -0.1 | [3] 0.012 | [4] 0.015 | [5] 0.037 | [6] 0.015 | [7] -0.009 | [8] -0.028 | IRAK-1-4 Inhibitor I 0.018

EXOC4 (UniProt Q96A65)
inactive: erlotinib 0.031 | [1] 0.034 | [2] -0.065 | [3] 0.031 | [4] 0.012 | [5] -0.015 | [6] -0.026 | [7] -0.011 | [8] 0.011 | IRAK-1-4 Inhibitor I -0.009

ERP29 (UniProt P30040)
inactive: erlotinib -0.021 | [1] 0.031 | [2] 0.008 | [3] 0.007 | [4] -0.004 | [5] 0.007 | [6] 0.042 | [7] 0.022 | [8] 0.023 | IRAK-1-4 Inhibitor I -0.009

FAM114A1 (UniProt Q8IWE2)
inactive: erlotinib 0.032 | [1] -0.294 | [2] -0.069 | [3] -0.075 | [4] -0.178 | [5] -0.15 | [6] -0.103 | [7] -0.037 | [8] -0.074 | IRAK-1-4 Inhibitor I 0.148

ETF1 (UniProt P62495)
inactive: erlotinib -0.01 | [1] -0.015 | [2] -0.01 | [3] -0.007 | [4] -0.012 | [5] -0.008 | [6] 0.003 | [7] -0.024 | [8] 0.015 | IRAK-1-4 Inhibitor I -0.004

EZR (UniProt P15311)
inactive: erlotinib -0.029 | [1] 0.019 | [2] 0.014 | [3] -0.009 | [4] -0.025 | [5] 0 | [6] 0.024 | [7] 0.002 | [8] 0.001 | IRAK-1-4 Inhibitor I -0.007

ERLEC1 (UniProt Q96DZ1)
inactive: erlotinib 0.02 | [1] 0.013 | [2] -0.006 | [3] 0.004 | [4] 0.003 | [5] -0.013 | [6] -0.059 | [7] -0.022 | [8] 0.015 | IRAK-1-4 Inhibitor I 0.022

EVI5 isoform 2 (UniProt O60447)
inactive: erlotinib -0.07 | [1] 0.104 | [2] 0.063 | [3] 0.034 | [4] 0.047 | [5] -0.037 | [6] -0.037 | [7] 0.039 | [8] -0.033 | IRAK-1-4 Inhibitor I 0

ERVK3-1, A0A0U1RQV1
inactive: erlotinib 0.001 | [1] -0.053 | [2] 0.019 | [3] 0.008 | [4] -0.013 | [5] -0.01 | [6] -0.031 | [7] 0.083 | [8] 0.064 | IRAK-1-4 Inhibitor I 0.041

FABP5 (UniProt Q01469)
inactive: erlotinib -0.049 | [1] 0.045 | [2] -0.039 | [3] -0.039 | [4] 0.04 | [5] 0.029 | [6] 0.027 | [7] 0.052 | [8] 0 | IRAK-1-4 Inhibitor I -0.015

ERMAP (UniProt Q96PL5)
inactive: erlotinib -0.003 | [1] 0.158 | [2] 0.055 | [3] 0 | [4] 0 | [5] 0.057 | [6] -0.114 | [7] 0.021 | [8] 0.064 | IRAK-1-4 Inhibitor I 0.004

FAM32A (UniProt Q9Y421)
inactive: erlotinib 0.013 | [1] -0.118 | [2] 0.026 | [3] 0.002 | [4] -0.101 | [5] 0.039 | [6] -0.009 | [7] -0.067 | [8] 0.005 | IRAK-1-4 Inhibitor I -0.047

ERO1B (UniProt Q86YB8)
inactive: erlotinib -0.097 | [1] -0.115 | [2] 0.152 | [3] 0.032 | [4] 0.037 | [5] -0.055 | [6] -0.006 | [7] -0.046 | [8] 0.034 | IRAK-1-4 Inhibitor I -0.003

ESS2 (UniProt Q96DF8)
inactive: erlotinib 0.008 | [1] -0.044 | [2] 0.061 | [3] 0.024 | [4] -0.017 | [5] 0.024 | [6] -0.047 | [7] -0.051 | [8] -0.006 | IRAK-1-4 Inhibitor I 0.014

ERO1A (UniProt Q96HE7)
inactive: erlotinib -0.016 | [1] -0.043 | [2] 0.032 | [3] -0.017 | [4] -0.007 | [5] 0.008 | [6] -0.017 | [7] 0 | [8] -0.032 | IRAK-1-4 Inhibitor I -0.015

FAM114A2 (UniProt Q9NRY5)
inactive: erlotinib -0.039 | [1] -0.068 | [2] 0.141 | [3] -0.028 | [4] -0.1 | [5] -0.052 | [6] 0.02 | [7] -0.045 | [8] -0.104 | IRAK-1-4 Inhibitor I -0.002

FAIM isoform 2 (UniProt Q9NVQ4)
inactive: erlotinib 0.148 | [1] 0.019 | [2] -0.104 | [3] 0.044 | [4] -0.068 | [5] -0.01 | [6] -0.115 | [7] 0.045 | [8] -0.026 | IRAK-1-4 Inhibitor I 0.07

Fetched one by one from the entries so far (two):
ERO1A (UniProt Q96HE7)
inactive: erlotinib -0.016 | [1] -0.043 | [2] 0.032 | [3] -0.017 | [4] -0.007 | [5] 0.008 | [6] -0.017 | [7] 0 | [8] -0.032 | IRAK-1-4 Inhibitor I -0.015

ERMAP (UniProt Q96PL5)
inactive: erlotinib -0.003 | [1] 0.158 | [2] 0.055 | [3] 0 | [4] 0 | [5] 0.057 | [6] -0.114 | [7] 0.021 | [8] 0.064 | IRAK-1-4 Inhibitor I 0.004

(further entries)

FAM133B (UniProt Q5BKY9)
inactive: erlotinib -0.17 | [1] -0.155 | [2] -0.117 | [3] -0.008 | [4] -0.112 | [5] -0.035 | [6] 0.102 | [7] 0.118 | [8] -0.053 | IRAK-1-4 Inhibitor I -0.039

FAM83A (UniProt Q86UY5)
inactive: erlotinib 0 | [1] 0.168 | [2] 0.097 | [3] 0.038 | [4] -0.054 | [5] -0.107 | [6] -0.031 | [7] -0.062 | [8] 0.008 | IRAK-1-4 Inhibitor I 0.019

FAM122A (UniProt Q96E09)
inactive: erlotinib -0.025 | [1] -0.157 | [2] 0.076 | [3] 0.053 | [4] -0.002 | [5] -0.031 | [6] 0.099 | [7] 0 | [8] 0.036 | IRAK-1-4 Inhibitor I 0.053

FAM117A (UniProt Q9C073)
inactive: erlotinib -0.012 | [1] -0.025 | [2] 0.042 | [3] 0.109 | [4] 0.023 | [5] -0.007 | [6] 0.036 | [7] -0.015 | [8] -0.007 | IRAK-1-4 Inhibitor I 0.029

ESYT2 (UniProt H7BXI1)
inactive: erlotinib -0.056 | [1] 0.037 | [2] -0.017 | [3] 0.042 | [4] -0.025 | [5] -0.022 | [6] -0.076 | [7] -0.005 | [8] -0.008 | IRAK-1-4 Inhibitor I 0.019

FAM160B1 (UniProt Q5W0V3)
inactive: erlotinib 0.006 | [1] -0.052 | [2] 0.022 | [3] 0.04 | [4] -0.003 | [5] -0.024 | [6] 0.072 | [7] -0.022 | [8] 0.032 | IRAK-1-4 Inhibitor I 0.015

EXOSC2 (UniProt Q13868)
inactive: erlotinib 0.011 | [1] 0.008 | [2] 0.016 | [3] -0.006 | [4] -0.011 | [5] -0.006 | [6] -0.003 | [7] 0.008 | [8] 0.041 | IRAK-1-4 Inhibitor I 0.018

ETHE1 (UniProt O95571)
inactive: erlotinib -0.046 | [1] -0.01 | [2] 0.039 | [3] 0.021 | [4] 0.034 | [5] -0.007 | [6] 0.012 | [7] -0.046 | [8] -0.013 | IRAK-1-4 Inhibitor I -0.044

FAM118A (UniProt Q9NWS6)
inactive: erlotinib 0.03 | [1] -0.03 | [2] -0.016 | [3] 0.022 | [4] 0.029 | [5] 0.012 | [6] -0.006 | [7] 0.021 | [8] 0.048 | IRAK-1-4 Inhibitor I 0.051

FAHD1 (UniProt Q6P587)
inactive: erlotinib -0.033 | [1] 0.007 | [2] 0.098 | [3] -0.046 | [4] 0.031 | [5] 0.032 | [6] -0.067 | [7] -0.017 | [8] -0.197 | IRAK-1-4 Inhibitor I 0.184

EXOSC7 (UniProt Q15024)
inactive: erlotinib -0.012 | [1] 0.033 | [2] 0.001 | [3] -0.012 | [4] 0.002 | [5] -0.006 | [6] 0.009 | [7] -0.023 | [8] 0.017 | IRAK-1-4 Inhibitor I -0.011
